# Test results from patent publication US20070113297A1.
# No constants are given. Whether binding was seen depends on the method and setting. Some entries that bind do so weakly or less than the wild type.
# Molecular target: T1, mouse signal regulatory protein (SIRP)α (mouse) (UniProt P97797)
# T1 sequence (looked up): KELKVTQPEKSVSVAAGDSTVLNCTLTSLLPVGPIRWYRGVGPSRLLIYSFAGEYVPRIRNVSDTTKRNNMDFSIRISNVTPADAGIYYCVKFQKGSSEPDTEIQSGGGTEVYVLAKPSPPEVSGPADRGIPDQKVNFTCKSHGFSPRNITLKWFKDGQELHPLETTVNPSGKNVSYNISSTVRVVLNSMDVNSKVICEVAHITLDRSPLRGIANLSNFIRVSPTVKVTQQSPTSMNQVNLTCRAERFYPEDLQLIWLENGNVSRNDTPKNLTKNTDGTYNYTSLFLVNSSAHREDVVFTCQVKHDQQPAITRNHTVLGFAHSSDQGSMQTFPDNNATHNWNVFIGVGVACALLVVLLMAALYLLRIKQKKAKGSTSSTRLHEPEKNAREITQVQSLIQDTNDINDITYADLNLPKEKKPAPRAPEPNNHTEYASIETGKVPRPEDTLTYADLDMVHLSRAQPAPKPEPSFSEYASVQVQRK
# Experiment: WT mouse RBCs on WT mouse macrophages; SIRPα phosphotyrosine IP/Western blot
binder,measurement,value
"mouse CD47 (ligand, UniProt Q61735 19-303, looked up) QLLFSNVNSIEFTSCNETVVIPCIVRNVEAQSTEEMFVKWKLNKSYIFIYDGNKNSTTTDQNFTSAKISVSDLINGIASLKMDKRDAMVGNYTCEVTELSREGKTVIELKNRTVSWFSPNEKILIVIFPILAILLFWGKFGILTLKYKSSHTNKRIILLLVAGLVLTVIVVVGAILLIPGEKPVKNASGLGLIVISTGILILLQYNVFMTAFGMTSFTIAILITQVLGYVLALVGLCLCIMACEPVHGPLLISGLGIIALAELLGLVYMKFVASNQRTIQPPRNR",binding,binds
